# Experimental data taken from the supplement of paper PMC8728848.
# The other results are listed elsewhere or left out.
# B1: AT3G44510(29) (Arabidopsis thaliana), F4J341 (protein)
# chain: MEEHLQGRIKLHDGRYLAYKERGVPKDDAKFTIVLVHGFGSSKDMNFNVSQELVNEIGIYFVLYDRAGYGESDPNPKRSLKSEAYDVQELADGLEIGSRFYLIGISMGSYTVWSCLKHIPQRLAGVAMVAPVVNFRWPSIPKSLMPKDYRREVAKWSVWIANYFPGLLQWLVTQNMFSTTSMLEKNPVYFNDQDIEVLKHIKGFPMLTKEKLRERGVFGTLRSDFLVAFGDWDFDPADLPDPSLSGPEKGSSSVHIWQGYEDKVMPFQLQRCLCRKLPWIRYHEVPKGGHLIVHYDGICDAILKSLLLGEDLPMYKPKAVITEPA
# Columns and labels:
# Assay in all cases: glycan array binding signal (z-score within array); higher = stronger binding
# Conditions in all cases: glycan notation: IUPAC condensed, linker removed
# [1] = molecular target: Gal(b1-4)GlcNAc(b1-2)Man(a1-3)[Gal(b1-4)GlcNAc(b1-2)Man(a1-6)]Man(b1-4)GlcNAc(b1-4)GlcNAc
# Outline: (§1)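 Glycan array binding is given as a within-array Z-score, which can be read as non-binding when negative. The arrays, 3228 of them, came from the Consortium for Functional Glycomics database and were retained only where the protein sequence was available. Z-scores were averaged across arrays of the same protein sequence at different concentrations or buffers and across linkers.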
# [2] = molecular target: Gal(b1-4)GlcNAc(b1-2)Man(a1-3)[Gal(b1-4)GlcNAc(b1-2)Man(a1-6)]Man(b1-4)GlcNAc(b1-4)[Fuc(a1-6)]GlcNAc
# Outline: as §1
# [3] = molecular target: Gal(b1-4)GlcNAc(b1-2)Man(a1-3)[Gal(b1-4)GlcNAc(b1-2)Man(a1-6)][Gal(b1-4)GlcNAc(b1-4)]Man(b1-4)GlcNAc(b1-4)[Fuc(a1-6)]GlcNAc
# Outline: as §1
# [4] = molecular target: Gal(b1-4)GlcNAc(b1-2)Man(a1-3)[Gal(b1-4)GlcNAc(b1-2)Man(a1-6)][GlcNAc(b1-4)]Man(b1-4)GlcNAc(b1-4)[Fuc(a1-6)]GlcNAc
# Outline: as §1
# [5] = molecular target: Gal(b1-4)GlcNAc(b1-2)Man(a1-3)[GlcNAc(b1-2)Man(a1-6)]Man(b1-4)GlcNAc(b1-4)GlcNAc
# Outline: as §1
# [6] = molecular target: Gal(b1-4)GlcNAc(b1-2)Man(a1-3)[GlcNAc(b1-4)][Gal(b1-4)GlcNAc(b1-2)Man(a1-6)]Man(b1-4)GlcNAc(b1-4)GlcNAc
# Outline: as §1
# [7] = molecular target: Gal(b1-4)GlcNAc(b1-2)Man(a1-3)[Man(a1-6)]Man(b1-4)GlcNAc(b1-4)GlcNAc
# Outline: as §1
# [8] = molecular target: Gal(b1-4)GlcNAc(b1-2)Man(a1-6)Man(b1-4)GlcNAc(b1-4)GlcNAc
# Outline: as §1
# [9] = molecular target: Gal(b1-4)GlcNAc(b1-2)Man(a1-6)[GlcNAc(b1-2)Man(a1-3)]Man(b1-4)GlcNAc(b1-4)GlcNAc
# Outline: as §1
# [10] = molecular target: Gal(b1-4)GlcNAc(b1-2)Man(a1-6)[Man(a1-3)]Man(b1-4)GlcNAc(b1-4)GlcNAc
# Outline: as §1
# [11] = molecular target: Gal(b1-4)GlcNAc(b1-2)[Gal(b1-4)GlcNAc(b1-4)]Man(a1-3)[Gal(b1-4)GlcNAc(b1-2)Man(a1-6)]Man(b1-4)GlcNAc(b1-4)GlcNAc
# Outline: as §1
# [12] = molecular target: Gal(b1-4)GlcNAc(b1-2)[Gal(b1-4)GlcNAc(b1-4)]Man(a1-3)[Gal(b1-4)GlcNAc(b1-2)[Gal(b1-4)GlcNAc(b1-6)]Man(a1-6)]Man(b1-4)GlcNAc(b1-4)GlcNAc
# Outline: as §1
# [13] = molecular target: Gal(b1-4)GlcNAc(b1-2)[Gal(b1-4)GlcNAc(b1-4)]Man(a1-3)[GlcNAc(b1-4)][Gal(b1-4)GlcNAc(b1-2)Man(a1-6)]Man(b1-4)GlcNAc(b1-4)GlcNAc
# Outline: as §1
# [14] = molecular target: Gal(b1-4)GlcNAc(b1-2)[Gal(b1-4)GlcNAc(b1-4)]Man(a1-3)[GlcNAc(b1-4)][Gal(b1-4)GlcNAc(b1-2)[Gal(b1-4)GlcNAc(b1-6)]Man(a1-6)]Man(b1-4)GlcNAc(b1-4)GlcNAc
# Outline: as §1
# [15] = molecular target: Gal(b1-4)GlcNAc(b1-2)[Gal(b1-4)GlcNAc(b1-6)]Man(a1-6)[Gal(b1-4)GlcNAc(b1-2)Man(a1-3)]Man(b1-4)GlcNAc(b1-4)GlcNAc
# Outline: as §1
# [16] = molecular target: Gal(b1-4)GlcNAc(b1-2)[Gal(b1-4)GlcNAc(b1-6)]Man(a1-6)[Gal(b1-4)GlcNAc(b1-2)Man(a1-3)]Man(b1-4)GlcNAc(b1-4)[Fuc(a1-6)]GlcNAc
# Outline: as §1
# [17] = molecular target: Gal(b1-4)GlcNAc(b1-2)[Gal(b1-4)GlcNAc(b1-6)]Man(a1-6)[GlcNAc(b1-4)][Gal(b1-4)GlcNAc(b1-2)Man(a1-3)]Man(b1-4)GlcNAc(b1-4)GlcNAc
# Outline: as §1
# [18] = molecular target: Gal(b1-4)GlcNAc(b1-2)[Gal(b1-4)GlcNAc(b1-6)]Man(a1-6)[GlcNAc(b1-4)][Gal(b1-4)GlcNAc(b1-2)[Gal(b1-4)GlcNAc(b1-4)]Man(a1-3)]Man(b1-4)GlcNAc(b1-4)[Fuc(a1-6)]GlcNAc
# Outline: as §1
# [19] = molecular target: Gal(b1-4)GlcNAc(b1-3)Gal(b1-3)GalNAc
# Outline: as §1
binder,measurement,setting,value
B1,glycan array binding signal (z-score),[1],-0.419
same,glycan array binding signal (z-score),[2],0.034
same,glycan array binding signal (z-score),[3],-0.503
same,glycan array binding signal (z-score),[4],-0.063
same,glycan array binding signal (z-score),[5],-0.797
same,glycan array binding signal (z-score),[6],-0.057
same,glycan array binding signal (z-score),[7],0.261
same,glycan array binding signal (z-score),[8],0.719
same,glycan array binding signal (z-score),[9],-0.46
same,glycan array binding signal (z-score),[10],0.466
same,glycan array binding signal (z-score),[11],-0.78
same,glycan array binding signal (z-score),[12],0.171
same,glycan array binding signal (z-score),[13],0.756
same,glycan array binding signal (z-score),[14],-0.625
same,glycan array binding signal (z-score),[15],-0.005
same,glycan array binding signal (z-score),[16],0.453
same,glycan array binding signal (z-score),[17],-0.114
same,glycan array binding signal (z-score),[18],-0.121
same,glycan array binding signal (z-score),[19],1.1

# An excerpt taken from the entries so far, for reference:
binder,measurement,setting,value
B1,glycan array binding signal (z-score),[3],-0.503
same,glycan array binding signal (z-score),[4],-0.063
